Test results from paper PMC9455612.
These are yes or no findings as the source states them, for the method shown. In cells and extracts the contact can be indirect. Where a sequence is shown, tags or fusion partners need not be part of it.

Molecular target: T1, NTCP V5His (UniProt Q14973)
T1 sequence: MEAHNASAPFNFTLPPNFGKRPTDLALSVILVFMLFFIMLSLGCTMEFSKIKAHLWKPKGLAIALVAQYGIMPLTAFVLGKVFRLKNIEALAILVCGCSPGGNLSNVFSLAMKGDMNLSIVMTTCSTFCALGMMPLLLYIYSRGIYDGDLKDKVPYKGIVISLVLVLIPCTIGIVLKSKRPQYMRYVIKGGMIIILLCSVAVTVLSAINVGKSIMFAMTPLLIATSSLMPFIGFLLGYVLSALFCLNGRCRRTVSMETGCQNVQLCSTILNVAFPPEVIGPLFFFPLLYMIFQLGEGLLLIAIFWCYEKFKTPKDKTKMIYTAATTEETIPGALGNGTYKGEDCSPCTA
Test: pull-down; NTCP V5-His from transfected 293T lysate held on Ni-NTA agarose, overnight at 4 °C; 20 mM NaPO4 pH 8.0, 0.3 M NaCl, 10% glycerol, 0.1% Triton X-100; eluted with 0.5 M imidazole; input, unbound and bound fractions blotted with anti-V5 and anti-ATP5B

Substance: ATP5B (cellular, 293T) (from UniProt P06576 48-529)
- binding: no binding
